Reference: PubChem BioAssay AID624297 (National Center for Advancing Translational Sciences (NCATS), 2012)
In all, about 340,000 compounds went through this assay and about 6,200 (1.8%) were called active. Inconclusive results, whose numbers are uncertain, are shown with a selection of clear calls. Calls follow the shape of the dose curve; as a rule, active = well fitted activation curve with a large enough effect; inconclusive = small, poorly fitted or top-dose-only effect; inactive = no such curve, though single readings can be large or run the other way. Potencies beside an inconclusive call are fits to weak or partial responses and may not hold up.

Assay: A quantitative high throughput screen for small molecules that induce DNA re-replication in SW480 colon adenocarcinoma cells. Also: nearly all actives have a fitted effect of over 55% in size.
Conditions: Hoechst DNA content imaging, 48 h; series mostly up to 46.1 µM
How it was run: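 Compounds, transferred as 23 nL by pin tool, were incubated with cells for 48 hr; DNA content per nucleus was then quantified by Hoechst staining and fluorescence plate imaging.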
Potency is read from the fitted curve at half-maximal effect.

**Q.** For CC(=O)N/N=C\c1ccccc1OC/C=C/c1ccccc1, which Potency is on record?
**A.** inconclusive: 29.1 µM [activator, single point]

**Q.** With COc1c(Br)cc(Br)cc1/C=C1/C(=O)N=C(N)N1C as the compound, how does the Potency read?
**A.** inactive

**Q.** Which Potency does the source give for Cc1nn(CC(=O)O)c(C)c1C here?
**A.** inactive

**Q.** For CC(C)CCNC(=O)CCSCCC(=O)NCCC(C)C, which Potency is on record?
**A.** inconclusive: 29.1 µM [activator, single point]

**Q.** For Cc1c(C(=O)Nc2ccccc2F)sc2ncn(CC(=O)N3CCCCC3)c(=O)c12, which Potency is on record?
**A.** inconclusive: 0.0116 µM [activator, full curve, poor fit]

**Q.** For COC(C(=O)Nc1ccnn1C1CCN(Cc2nccs2)CC1)c1ccccc1 (stereo not given), which Potency is on record?
**A.** inactive

**Q.** With CCCCNC(=O)/C(C#N)=C/c1ccc(C(=O)OC)cc1 as the compound, how does the Potency read?
**A.** inactive

**Q.** With O=C(NNC(=O)C(Cl)Cl)c1cnn(-c2ccccc2)c1C(F)(F)F as the compound, how does the Potency read?
**A.** inconclusive: 3.26 µM [activator, full curve, poor fit]

**Q.** With CC(=O)Nc1ccc(S(=O)(=O)NCCNc2ccccc2[N+](=O)[O-])cc1 as the compound, how does the Potency read?
**A.** inconclusive: 3.66 µM [activator, single point]

**Q.** With CCN(CC)S(=O)(=O)c1cccc(-c2nnc(SCc3ncc(-c4ccccc4)o3)n2C)c1 as the compound, how does the Potency read?
**A.** inactive

**Q.** With CN(C1CCCCC1)S(=O)(=O)c1ccc2[nH]c(=O)oc2c1 as the compound, how does the Potency read?
**A.** inconclusive: 0.103 µM [activator, full curve, poor fit]

**Q.** Which Potency does the source give for COc1ccc(CCC(=O)Nc2ccccc2C(F)(F)F)cc1 here?
**A.** inactive

**Q.** Which Potency does the source give for CCCn1nc(NC(=O)c2cccs2)c2cc3cc(OC)ccc3nc21 here?
**A.** active: 14.6 µM

**Q.** Which Potency does the source give for O=c1c2c([N+](=O)[O-])cc([N+](=O)[O-])cc2sn1Cc1ccccc1 here?
**A.** inconclusive: 18.4 µM [activator, single point]

**Q.** With Cc1ccc(S(=O)(=O)N2CCCC(c3nc4c(nnn4Cc4ccc5c(c4)OCCO5)c(=O)[nH]3)C2)cc1 (stereo not given) as the compound, how does the Potency read?
**A.** inconclusive: 16.4 µM [activator, single point]

**Q.** Which Potency does the source give for COc1ccc(S(=O)(=O)Nc2ccc(S(=O)(=O)N3CCCCC3)cc2)cc1C here?
**A.** inactive

**Q.** For Cc1ccnc(NC(=O)CNC(=O)c2cccs2)c1, which Potency is on record?
**A.** inconclusive: 2.91 µM [activator, full curve, poor fit]

**Q.** For CCc1ccc(/C([O-])=C(/C(=S)NCCN2CCOCC2)[n+]2ccccc2)cc1, which Potency is on record?
**A.** inactive

**Q.** For COc1ccc(S(=O)(=O)N2CCOCC2)cc1NC(=O)c1cccs1, which Potency is on record?
**A.** inconclusive: 29.1 µM [activator, single point]

**Q.** Which Potency does the source give for O=C(Nc1ccc2nn(-c3ccccc3)nc2c1)c1ccc2c(c1)OCO2 here?
**A.** inconclusive: 32.6 µM [activator, partial curve, poor fit]

**Q.** With CCCCNC(=O)CNC(=S)N(Cc1ccccc1F)C1CCCCC1 as the compound, how does the Potency read?
**A.** inconclusive: 32.6 µM [activator, partial curve, poor fit]

**Q.** For CN1CCc2nc3ccc(Cl)cc3c(-c3ccccc3Cl)c2C1, which Potency is on record?
**A.** inactive

**Q.** For COc1cc(NC(=O)C2C3CCC(O3)C2C(=O)O)cc(OC)c1 (stereo not given), which Potency is on record?
**A.** inconclusive: 29.1 µM [activator, single point]

**Q.** For COc1ccc(OC)c(C(=O)/C=C/c2cccnc2)c1, which Potency is on record?
**A.** active: 20.6 µM

**Q.** Which Potency does the source give for Cc1ccc(NC(=O)COC(=O)C2COc3ccccc3O2)cc1 (stereo not given) here?
**A.** inconclusive: 0.651 µM [activator, full curve, poor fit]

**Q.** Which Potency does the source give for O=C(N/N=C/C(Cl)=C\c1ccccc1)c1cccs1 here?
**A.** inactive

**Q.** With O=C(O)Cn1cc(F)c(=O)[nH]c1=O as the compound, how does the Potency read?
**A.** inconclusive: 9.2 µM [activator, partial curve, poor fit]

**Q.** Which Potency does the source give for COc1ccc(OCCCC(=O)OCC(=O)NNC(=O)c2ccc([N+](=O)[O-])cc2)cc1 here?
**A.** inactive

**Q.** With COc1ccc(/C=C/C(=O)c2ccc([N+](=O)[O-])o2)cc1OC as the compound, how does the Potency read?
**A.** inconclusive: 0.58 µM [activator, full curve]

**Q.** For c1cc(CN2CCCCC2)cc(OCCCNc2nc3ccccc3s2)c1, which Potency is on record?
**A.** inconclusive: 8.91 µM [activator, single point]

**Q.** Which Potency does the source give for COc1cc(CN2CCN(S(=O)(=O)c3ccc(NC(C)=O)cc3)CC2)cc(OC)c1O here?
**A.** inactive

**Q.** Which Potency does the source give for Cc1cccc(N2CCN(C(=S)Nc3ccc4nc(N5CCOCC5)cc(C)c4c3)CC2C)c1 (stereo not given) here?
**A.** inconclusive: 18.4 µM [activator, single point]

**Q.** For COc1ccc(-c2oc3ccc(-c4ccc(OC)nc4)cc3c2-c2ccc(OC)cc2)cc1, which Potency is on record?
**A.** inconclusive: 16.4 µM [activator, partial curve, poor fit]

**Q.** Which Potency does the source give for Cc1ccc(-c2csc(NC(=O)C[n+]3cc(-c4ccccc4)n4c3CCC4)n2)cc1 here?
**A.** inconclusive: 1.84 µM [activator, partial curve]

**Q.** For Cc1ccc(CNC(=O)CSc2nc3ccsc3c(=O)n2NC(=O)c2ccccc2)cc1, which Potency is on record?
**A.** inactive

**Q.** With O=C(Cc1ccccc1)Nc1nc(=O)c2ccccc2s1 as the compound, how does the Potency read?
**A.** inactive

**Q.** With O=C(c1ccccc1O)N1N=C(c2ccccc2)CC1(O)C(F)(F)F (stereo not given) as the compound, how does the Potency read?
**A.** inconclusive: 3.26 µM [activator, single point]

**Q.** For O=C(NN=C1c2ccccc2-c2ccccc21)c1ccccn1, which Potency is on record?
**A.** inconclusive: 29.1 µM [activator, single point]

**Q.** With O=c1cc(C(Cl)(Cl)Cl)oc2c1ccc1ccccc12 as the compound, how does the Potency read?
**A.** active: 13 µM

**Q.** Which Potency does the source give for COc1cc(C=O)c(Br)cc1OCc1ccc(C)cc1 here?
**A.** inconclusive: 23.1 µM [activator, single point]

**Q.** Which Potency does the source give for COc1ccc(C(C#N)N2CCC(c3ccccc3)=N2)cc1OC (stereo not given) here?
**A.** inconclusive: 29.1 µM [activator, partial curve, poor fit]

**Q.** With Cc1c(C(=O)NC2CCN(Cc3ccccc3)C2)oc2c(Cl)cccc12 (stereo not given) as the compound, how does the Potency read?
**A.** inconclusive: 29.1 µM [activator, single point]

**Q.** With Cc1ccc(-c2noc(CSc3nnc(Cc4ccccc4)n3-c3ccc(Cl)cc3)n2)cc1 as the compound, how does the Potency read?
**A.** inconclusive: 18.4 µM [activator, single point]

**Q.** Which Potency does the source give for COc1cc(C(=O)OC2CC3CCC2(C)C3(C)C)ccc1OC(C)=O (stereo not given) here?
**A.** inconclusive: 23.1 µM [activator, single point]

**Q.** Which Potency does the source give for CSc1ccc(C(=S)N2CCCC2)cc1 here?
**A.** inconclusive: 14.6 µM [activator, single point]
